# Data as given in PubChem BioAssay AID652272 (Drosophila RNAi Screening Center, 2013).
# Test: 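Finding fly genes that regulate Hedgehog signal transduction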 (primary screen)
# Cell system: Drosophila clone 8 (Cl8) cells
# Reagent: long dsRNA against Drosophila genes
# Read-out: 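Firefly light from a Hedgehog-responsive ptc promoter reporter and Renilla reference light, both read on a plate reader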
# Direction: firefly Hh reporter signal: higher = more ptc reporter light; Renilla reference signal: higher = more Renilla control light
# Rule for the call: 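Hit when the z-score averaged over two replicates is under -2 or over +3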
# Meaning of the calls: active = hit: reporter lowered or raised; inactive = not a hit
# The deposit covers about 21,000 reagents; shown is a random part of those that have a named target and a result. Of all reagents, 503 (2.4%) got an active call. 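Raw plate light values, not normalised; calls rest on replicate z-scores that were not deposited; hits include reporter decreases as well as increases.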 A number with no mark means an inactive call. Names joined by + are all predicted targets of the reagent. Not stated in the record: the amount of reagent, the time to read-out.
target,amplicon,"firefly Hh reporter signal, replicate 1","firefly Hh reporter signal, replicate 2","firefly Hh reporter signal, replicate 3","Renilla reference signal, replicate 1","Renilla reference signal, replicate 2"
fw,DRSC20334,72763,1.86e5,,1585,6795
CG8320 + ATPCL,DRSC07147,99915,60615,,2688,5731
Or98a,DRSC16774,83888,1.11e5,,3536,3592
Col4a1,DRSC03291,79526,52193,,4364,2304
CG2794,DRSC00534,1.09e5,1.11e5,,2534,2585
Sec3,DRSC10384,87837,45812,,3252,2019
trh,DRSC08355,1.07e5,49456,,3456,3843
trh,DRSC08739,68466,41475,,2221,3040
CG43191,DRSC05326,91426,1.84e5,,2885,8233
ATPsynbetaL,DRSC10503,1.32e5,,,5936,3426
TwdlP,DRSC14734,1.26e5,1.36e5,,3925,3408
CG33342,DRSC13662,46160,2.33e5,,12512,5286
CG32645,DRSC19683,99105,3.26e5,,1866,10987
CG32645,DRSC19889,72164,2.87e5,,1913,9851
Ser8,DRSC06891,67530,48744,,1776,3634
Sod1,DRSC11286,49264,61488,65068,5602,4842
CG7083,DRSC11136,51511,58171,,6460,4482
Cdlc2,DRSC00743,93157,69528,,2807,2630
CG13978,DRSC14720,1.29e5,1.19e5,,4420,2378
CG5107,DRSC15716,76976,68099,,1760,1824
hbs,DRSC07627,1.26e5,66626,,3210,5547
CG8854,DRSC07288,79672,41606,,3825,1760
Gr22f,DRSC00076,7.11e5,3.40e5,,35364,13296
CG9727,DRSC12585,1.28e5,68933,,5152,2929
Acbp6,DRSC10217,94560,67840,,8445,5156
CG12589,DRSC12215,62406,75728,,709,1286
idc,DRSC15680,79181,67808,,3499,2924
alphaTub85E,DRSC16899,38963,1.00e5,,1304,2269
Amacr,DRSC03198,1.25e5,89030,,4466,3297
unc-13,DRSC17192,4.82e5,1.61e5,,23540,3187
unc-13,DRSC17193,4.86e5,1.65e5,,26026,3920
unc-13,DRSC17223,1.10e5,72306,,2473,2643
Elba2,DRSC00731,88696,57236,,3799,2432
Mst98Ca,DRSC16749,1.17e5,1.32e5,,2272,3587
CG32212 + hpRNA:CR33940,DRSC09618,3.38e5,,,6935,
CG6974,DRSC16160,55654,81632,,1692,2115
Hayan,DRSC19989,1.62e5,1.04e5,,3718,2437
Wdr37,DRSC14500,1.02e5,82576,,4317,3419
CG16896,DRSC04284,1.00e5,49157,,3936,873
Vha68-1,DRSC03470,1.59e5,78980,,4834,6921
CG6028,DRSC15951,1.06e5,62011,,4593,2698
CG9922,DRSC16579,1.14e5,1.44e5,,3069,3405
Abl,DRSC09661,1.50e5,,,2571,7100
ATPCL,DRSC05913,96628,55709,,2352,4180
amx,DRSC18736,38869,1.32e5,,1562,5986
Hr96,DRSC16707,93479,98839,,3984,4136
feo,DRSC19398,5.56e5,78954,,3334,3334
CG4962,DRSC10464,1.18e5,,,2481,3355
Dcr-1,DRSC15646,1.25e5,1.05e5,,5785,4775
Sf3b5,DRSC14460,45941 (active),57227,,2256,2658
CG13614,DRSC14617,4.81e5,72483,,23624,2369
Tsp42El,DRSC06186,98410,92144,,3308,3084
Nab2,DRSC14158,92061,85163,,4349,4000
CG15543,DRSC15081,81981,1.36e5,,1340,7318
CG13893,DRSC08363,67924,39684,,2315,3050
Rac1,DRSC08688,63875,36277,,2467,3248
tHMG1,DRSC16181,8.35e5,1.46e5,,52739,395

Sorted by “firefly Hh reporter signal, replicate 2” (high to low): 6 of the entries above
target,amplicon,"firefly Hh reporter signal, replicate 1","firefly Hh reporter signal, replicate 2","firefly Hh reporter signal, replicate 3","Renilla reference signal, replicate 1","Renilla reference signal, replicate 2"
CG32645,DRSC19683,99105,3.26e5,,1866,10987
CG32645,DRSC19889,72164,2.87e5,,1913,9851
CG33342,DRSC13662,46160,2.33e5,,12512,5286
TwdlP,DRSC14734,1.26e5,1.36e5,,3925,3408
Sod1,DRSC11286,49264,61488,65068,5602,4842
Ser8,DRSC06891,67530,48744,,1776,3634
